# In PubChem BioAssay AID1688 (National Center for Advancing Translational Sciences (NCATS), 2009):
# The campaign covered roughly 220,000 compounds. About 2,400 (1.1%) were called active. This list was built around the results that the source calls inconclusive (neither active nor inactive); the mix of calls is not that of the screen. Calls follow the shape of the dose curve; as a rule, active = well fitted inhibition curve with a large enough effect; inconclusive = small, poorly fitted or top-dose-only effect, or effect the other way; inactive = no such curve, though single readings can be large or run the other way. Potencies beside an inconclusive call are fits to weak or partial responses and may not hold up.
# Assay: qHTS Multiplex Assay to Identify Dual Action Probes in a Cell Model of Huntington: Aggregate Formation (GFP); also: nearly all actives have a fitted effect of over 60% in size
# Conditions: PC12 HttQ103-GFP aggregates, Acumen cytometry, 40 h; activity change, negative = inhibition: at 46.1 µM (top of the series) unless noted
# How it was run: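 Multiplexed with ATP-based cell death, this channel scores GFP aggregates in PC12 cells expressing inducible HTTex1-Q103-GFP. Induction used 100 nM tebufenozide; compounds were tested in concentration series.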
# % is scaled to controls: 0 for no effect and ±100 for the full control effect; potency is read from the fitted curve at half-maximal effect.
Structure (SMILES),Potency,"activity change, negative = inhibition"
COC(=O)c1c(-c2cccs2)csc1NC(=O)CSc1ncnc2sc(C)c(C)c12,"inconclusive: 25.1 µM [inhibitor, single point]",
CCCC(=O)C1=C(O)C(C(=O)OC)C(C)(C)CC1=Nc1ccccc1 (centres undefined),,inactive: -11.7%
Cc1cc(N=Cc2c(O)n(-c3cccc(C(F)(F)F)c3)c(=O)c3ccccc23)no1,"inconclusive: 2.51 µM [inhibitor, single point]",
CC(C)(C)c1cc(CN2CCCC(O)C2)c(O)c(C(C)(C)C)c1 (centres undefined),"inconclusive: 8.91 µM [inhibitor, partial curve]",
Cn1c(N2CCC(C(N)=O)CC2)nc2c1c(=O)n(Cc1ccc(Cl)cc1)c(=O)n2C,"inconclusive: 3.98 µM [inhibitor, single point]",
O=C(CSc1ccc(-c2ccccn2)nn1)NC1CCCCC1,,inactive: -1.53%
CCOC(=O)C1CCN(Cc2ccc(F)c(F)c2)CC1,,inactive: -7.74%
NS(=O)(=O)c1ccc(N/N=C/c2cn(-c3ccccc3)nc2-c2cccs2)cc1,,inactive: -22.7%
Cc1cc2c(c(=O)n1C1CC1)C(c1cccc(Cl)c1)C(C#N)=C(N)O2 (centres undefined),,inactive: 14.6%
Nc1nonc1C(=O)N/N=C/c1ccc(-c2cccc([N+](=O)[O-])c2)o1,"inconclusive: 5.62 µM [activator, single point]",
CCn1cc(C(=O)NCC2CCCO2)c(=O)c2cc(S(=O)(=O)N3CCC(C)CC3)ccc21 (centres undefined),,inactive: -2.44%
Cc1cc(-n2[nH]c(C)c(C)c2=O)nc(-c2ccccc2O)n1,"inconclusive: 35.5 µM [inhibitor, single point]",
COc1ccc(Nc2ccnc3ccccc23)cc1,"inconclusive: 3.16 µM [inhibitor, partial curve]",
NC[C@@H]1O[C@H](O[C@@H]2[C@H](O[C@@H]3O[C@H](CO)[C@@H](O)[C@@H]3O)[C@@H](O)[C@@H](N)C[C@H]2N)[C@@H](N)[C@H](O)[C@@H]1O,,inactive: -7.24% [at 20.6 µM]
COc1cc(C(=O)N/N=C(\Cc2ncc[nH]2)c2ccccc2)cc(OC)c1OC,"inconclusive: 7.94 µM [inhibitor, partial curve]",
Cc1ccc(-c2nnc(N3CCC(C)CC3)c3ccccc23)cc1C,"inconclusive: 31.6 µM [inhibitor, single point]",
CCOc1ccc(CN(C)CC(=O)Nc2cc(C)c(C)cc2[N+](=O)[O-])cc1,"inconclusive: 1.12 µM [inhibitor, single point]",
O=[N+]([O-])c1cc(Br)c(O)c(/C=N/Nc2nc3ccccc3s2)c1,active: 5.01 µM,
CC1CCN(c2nc3ccc(C(=O)N4CCN(Cc5ccc6c(c5)OCO6)CC4)cc3s2)CC1,"inconclusive: 35.5 µM [inhibitor, single point]",
COc1cccc(N2CCN(CC(=O)c3c[nH]c4ccc(OC)cc34)CC2C)c1 (centres undefined),active: 35.5 µM,
O=C(Nc1nccs1)c1ccc(Cl)c(S(=O)(=O)N2CCCCC2)c1,"inconclusive: 11.2 µM [inhibitor, partial curve]",
CC1CN(C2=N/C(=C/c3ccc4c(c3)OCO4)C(=O)N2)CC(C)O1 (centres undefined),"inconclusive: 1.58 µM [inhibitor, full curve]",
O=C(NNc1c2ccccc2nc2ccccc12)c1ccccc1O,,inactive: -16.2%

Structure (SMILES),Potency,"activity change, negative = inhibition"
O=C(CSc1nc2ccccc2s1)N1CCOCC1,,inactive: -17.3%
Cc1ccc(C)c(-n2[nH]c3c4c(ccc3c2=O)C(=O)c2ccccc2C4=O)c1,"inconclusive: 10 µM [inhibitor, partial curve]",
COCCCNC(=O)c1cccn2c(=O)c3cc4ccccc4cc3nc12,"inconclusive: 2 µM [activator, partial curve]",
CC(C)(C)c1cc(CN2CCCCC2)cc(C(C)(C)C)c1O,,inactive: -5.19%
O=c1[nH]c2ccc(Cl)cc2c(-c2ccccc2)c1SC(=S)N1CCOCC1,"inconclusive: 22.4 µM [inhibitor, single point]",
C/C(=N\Nc1ccc([N+](=O)[O-])cc1[N+](=O)[O-])C(C)C(C)C (centres undefined),"inconclusive: 11.2 µM [inhibitor, single point]",
CNC(=S)N(Cc1ccc(OC)cc1)C1CC(=O)N(c2ccc(Cl)cc2)C1=O (centres undefined),"inconclusive: 22.4 µM [inhibitor, single point]",
OC1CCN(c2c3c(nc4cc(-c5cccc(F)c5)nn24)CCCC3)CC1,"inconclusive: 17.8 µM [inhibitor, single point]",
O=C(c1ccc(Oc2ccc(C(F)(F)F)cn2)cc1)N1CCN(c2ccccc2)CC1,"inconclusive: 10 µM [inhibitor, partial curve]",
Cc1cc(C)n2nc(SCc3nnc(SCc4ccccc4C)s3)nc2n1,active: 12.6 µM,
COc1ccc(CCNS(=O)(=O)c2cccc(C(=O)O)c2)cc1OC,"inconclusive: 5.62 µM [activator, single point]",
Cc1ccc2nc(NC(=O)COC(=O)c3ccc(Br)o3)sc2c1,"inconclusive: 1.26 µM [inhibitor, single point]",
Cc1c(NC(=O)C(C)OC(=O)c2ccc([N+](=O)[O-])s2)c(=O)n(-c2ccccc2)n1C (centres undefined),,inactive: -11.3%
CCn1c2ccccc2c2cc(NC(=O)c3cccc(OC)c3OC)ccc21,"inconclusive: 35.5 µM [inhibitor, single point]",
CCCNC(=O)COC(=O)c1ccc(Cl)c(S(=O)(=O)N2CCCC2)c1,,inactive: 9.6% [at 9.22 µM]
CCN(CC)c1ccc(/C=C(/C#N)C(=O)NCc2ccccc2)o1,"inconclusive: 35.5 µM [activator, single point]",
Nc1nc(-c2ccccc2)c(N=Nc2ccccc2Cl)s1,"inconclusive: 35.5 µM [activator, single point]",
COc1ccc(-c2nn(-c3ccccc3)cc2/C=N/Nc2ccccn2)cc1OC,"inconclusive: 17.8 µM [inhibitor, single point]",
Cc1ccccc1-n1nnnc1-c1ccccc1,,inactive: -19.7%
CCN1CCN(CC(=O)N2N=C(c3cccs3)CC2c2ccc(OC)c(OC)c2)C(=O)C1=O (centres undefined),,inactive: 5.42%
O=C(CN1CCOCC1)N1CCc2ccccc2C(c2ccccc2)C1 (centres undefined),,inactive: -9.99%
CCOC(=O)c1c(C)n(-c2ccc(C)cc2)c2ccc(OCC(O)CNCC3CCCO3)cc12 (centres undefined),"inconclusive: 35.5 µM [inhibitor, single point]",
COc1cccc(/C=N/Nc2snc(SC)c2C#N)c1O,active: 11.2 µM,

# Taken from above (16 entries):
Structure (SMILES),Potency,"activity change, negative = inhibition"
C/C(=N\Nc1ccc([N+](=O)[O-])cc1[N+](=O)[O-])C(C)C(C)C (centres undefined),"inconclusive: 11.2 µM [inhibitor, single point]",
CNC(=S)N(Cc1ccc(OC)cc1)C1CC(=O)N(c2ccc(Cl)cc2)C1=O (centres undefined),"inconclusive: 22.4 µM [inhibitor, single point]",
OC1CCN(c2c3c(nc4cc(-c5cccc(F)c5)nn24)CCCC3)CC1,"inconclusive: 17.8 µM [inhibitor, single point]",
O=C(c1ccc(Oc2ccc(C(F)(F)F)cn2)cc1)N1CCN(c2ccccc2)CC1,"inconclusive: 10 µM [inhibitor, partial curve]",
Cc1cc(C)n2nc(SCc3nnc(SCc4ccccc4C)s3)nc2n1,active: 12.6 µM,
COc1ccc(CCNS(=O)(=O)c2cccc(C(=O)O)c2)cc1OC,"inconclusive: 5.62 µM [activator, single point]",
Cc1ccc2nc(NC(=O)COC(=O)c3ccc(Br)o3)sc2c1,"inconclusive: 1.26 µM [inhibitor, single point]",
Cc1c(NC(=O)C(C)OC(=O)c2ccc([N+](=O)[O-])s2)c(=O)n(-c2ccccc2)n1C (centres undefined),,inactive: -11.3%
CCn1c2ccccc2c2cc(NC(=O)c3cccc(OC)c3OC)ccc21,"inconclusive: 35.5 µM [inhibitor, single point]",
CCCNC(=O)COC(=O)c1ccc(Cl)c(S(=O)(=O)N2CCCC2)c1,,inactive: 9.6% [at 9.22 µM]
CCN(CC)c1ccc(/C=C(/C#N)C(=O)NCc2ccccc2)o1,"inconclusive: 35.5 µM [activator, single point]",
Nc1nc(-c2ccccc2)c(N=Nc2ccccc2Cl)s1,"inconclusive: 35.5 µM [activator, single point]",
COc1ccc(-c2nn(-c3ccccc3)cc2/C=N/Nc2ccccn2)cc1OC,"inconclusive: 17.8 µM [inhibitor, single point]",
Cc1ccccc1-n1nnnc1-c1ccccc1,,inactive: -19.7%
CCN1CCN(CC(=O)N2N=C(c3cccs3)CC2c2ccc(OC)c(OC)c2)C(=O)C1=O (centres undefined),,inactive: 5.42%
O=C(CN1CCOCC1)N1CCc2ccccc2C(c2ccccc2)C1 (centres undefined),,inactive: -9.99%

# Remaining list, next part:

Structure (SMILES),Potency,"activity change, negative = inhibition"
O=C(N1CCN(c2ccccn2)CC1)N1c2ccccc2Sc2ccccc21,"inconclusive: 35.5 µM [inhibitor, single point]",
Cc1ccc(NC(=O)Cc2nn(C)c(=O)c3ccccc23)cc1F,active: 3.55 µM,
O=C(NCCN1C(=O)S/C(=C/c2ccccc2)C1=O)C1CCCN1C(=O)c1cccs1 (centres undefined),"inconclusive: 5.62 µM [inhibitor, single point]",
O=c1[nH]ncn1-c1cccc(C(F)(F)F)c1,"inconclusive: 0.794 µM [inhibitor, single point]",
O=C(CN(Cc1ccccc1)C(=O)c1cccc([N+](=O)[O-])c1)Nc1c(Cl)cc(Cl)cc1Cl,"inconclusive: 14.1 µM [activator, single point]",
O=Cc1c(N2CCN(c3ccccc3)CC2)nc2ccccn2c1=O,,inactive: 15.1%
CCC(CC)NC(=O)c1cc(OC)c(OC)cc1[N+](=O)[O-],"inconclusive: 35.5 µM [inhibitor, single point]",
CC1(C)CC2CC(C)(CN2S(=O)(=O)c2ccc(N)cc2)C1 (centres undefined),"inconclusive: 2.24 µM [activator, partial curve]",
CC(=O)Nc1ccc(S(=O)(=O)N2CCN(C(=O)c3ccccc3F)CC2)cc1,"inconclusive: 20 µM [inhibitor, single point]",
COc1ccc(Oc2ccccc2/C=N/O)cc1,"inconclusive: 11.2 µM [inhibitor, single point]",
CC(=O)Nc1ccc(S(=O)(=O)NC(CC(=O)NCCCN2CCOCC2)C(C)C)cc1 (centres undefined),"inconclusive: 25.1 µM [inhibitor, single point]",
COc1ccc(C(=O)Nc2ccc(C)cc2C(=O)c2ccccc2)c(OC)c1,"inconclusive: 2.51 µM [inhibitor, full curve, poor fit]",
COC(=O)c1ccc(CSc2nnc(NC(=O)c3cc4c(s3)CCCC4)s2)cc1,"inconclusive: 22.4 µM [activator, single point]",
COc1ccc(C(=O)Nc2c(C(C)(C)C)nn(C)c2C(C)(C)C)cc1,,inactive: -3.46% [at 9.22 µM]
COc1ccccc1-c1cn(S(=O)(=O)c2ccc(F)cc2)nc1N,"inconclusive: 11.2 µM [inhibitor, partial curve]",
O=C(N/N=C/c1ccc(Cl)cc1Cl)C1CCN(c2ncc(C(F)(F)F)cc2Cl)CC1,,inactive: -1.09%
COc1ccc(-c2c(C(F)(F)F)oc3cc(OCC(=O)Nc4ccccc4C(F)(F)F)ccc3c2=O)cc1OC,"inconclusive: 11.2 µM [inhibitor, single point]",
COc1cccc(-c2nn(-c3ccccc3)cc2C(=O)Nc2nccs2)c1,"inconclusive: 25.1 µM [inhibitor, partial curve]",
CCCCN(C)S(=O)(=O)c1ccc(C(=O)Nc2nnc(-c3cccs3)o2)cc1,"inconclusive: 11.2 µM [inhibitor, partial curve]",
Cc1cc(C)c2ccc(=S)[nH]c2n1,,inactive: 11.7%
COC(=O)C1CCN(S(=O)(=O)c2c(C)n(C)c(=O)n(C)c2=O)CC1,,inactive: 14.4%
Nc1ccc(N2CCCCCC2)cc1,"inconclusive: 15.8 µM [inhibitor, single point]",
COc1ccc(CN(C)C(=O)CCl)cc1,active: 12.6 µM,
